# Percent effect of library compounds

The chains behind the UniProt entries cited, without tags or fusion partners. Residues count along the entry.
UniProt I6X8D2, whole entry: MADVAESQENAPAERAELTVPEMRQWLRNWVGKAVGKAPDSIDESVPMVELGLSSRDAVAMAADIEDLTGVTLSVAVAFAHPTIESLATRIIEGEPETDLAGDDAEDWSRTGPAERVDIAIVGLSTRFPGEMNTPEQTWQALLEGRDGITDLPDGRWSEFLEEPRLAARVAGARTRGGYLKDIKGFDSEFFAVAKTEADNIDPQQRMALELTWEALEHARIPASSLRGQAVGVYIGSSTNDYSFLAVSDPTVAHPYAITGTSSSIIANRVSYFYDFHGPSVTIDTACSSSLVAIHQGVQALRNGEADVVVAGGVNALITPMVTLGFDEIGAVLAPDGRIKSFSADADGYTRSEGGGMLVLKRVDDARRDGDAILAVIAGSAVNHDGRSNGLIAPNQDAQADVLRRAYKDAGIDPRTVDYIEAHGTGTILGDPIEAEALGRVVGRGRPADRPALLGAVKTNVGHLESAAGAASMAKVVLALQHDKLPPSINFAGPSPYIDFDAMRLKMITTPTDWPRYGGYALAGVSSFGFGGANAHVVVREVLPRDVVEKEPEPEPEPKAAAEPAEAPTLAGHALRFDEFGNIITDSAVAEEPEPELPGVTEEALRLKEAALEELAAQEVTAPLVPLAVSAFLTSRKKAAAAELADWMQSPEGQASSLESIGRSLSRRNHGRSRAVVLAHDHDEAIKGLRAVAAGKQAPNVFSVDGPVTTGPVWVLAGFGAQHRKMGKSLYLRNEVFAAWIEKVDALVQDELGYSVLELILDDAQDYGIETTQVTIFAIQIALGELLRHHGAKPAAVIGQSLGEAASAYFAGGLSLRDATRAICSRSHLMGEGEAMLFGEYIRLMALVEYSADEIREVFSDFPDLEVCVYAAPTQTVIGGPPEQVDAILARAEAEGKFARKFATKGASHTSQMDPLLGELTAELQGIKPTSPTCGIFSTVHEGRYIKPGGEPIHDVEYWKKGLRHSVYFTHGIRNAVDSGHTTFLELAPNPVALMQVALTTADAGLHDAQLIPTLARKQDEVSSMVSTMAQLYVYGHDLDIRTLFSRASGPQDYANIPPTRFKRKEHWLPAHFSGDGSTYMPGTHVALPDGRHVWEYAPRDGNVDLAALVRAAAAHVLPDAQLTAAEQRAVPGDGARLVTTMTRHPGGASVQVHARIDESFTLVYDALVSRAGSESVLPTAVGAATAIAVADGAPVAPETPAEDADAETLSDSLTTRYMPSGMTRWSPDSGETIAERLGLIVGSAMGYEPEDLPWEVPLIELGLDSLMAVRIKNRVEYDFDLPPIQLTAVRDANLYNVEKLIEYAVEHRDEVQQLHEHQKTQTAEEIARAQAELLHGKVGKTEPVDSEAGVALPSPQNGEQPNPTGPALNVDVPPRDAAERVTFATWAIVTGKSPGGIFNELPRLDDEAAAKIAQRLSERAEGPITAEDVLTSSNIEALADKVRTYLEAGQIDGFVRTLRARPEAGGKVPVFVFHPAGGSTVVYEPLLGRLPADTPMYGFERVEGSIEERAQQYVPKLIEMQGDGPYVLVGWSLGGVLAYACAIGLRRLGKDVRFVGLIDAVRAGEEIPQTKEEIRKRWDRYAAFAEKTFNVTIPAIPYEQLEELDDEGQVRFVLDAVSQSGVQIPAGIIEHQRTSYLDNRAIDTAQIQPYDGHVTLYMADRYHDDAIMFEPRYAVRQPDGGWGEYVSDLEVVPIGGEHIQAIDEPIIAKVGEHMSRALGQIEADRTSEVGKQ
UniProt P9WFT3, whole entry: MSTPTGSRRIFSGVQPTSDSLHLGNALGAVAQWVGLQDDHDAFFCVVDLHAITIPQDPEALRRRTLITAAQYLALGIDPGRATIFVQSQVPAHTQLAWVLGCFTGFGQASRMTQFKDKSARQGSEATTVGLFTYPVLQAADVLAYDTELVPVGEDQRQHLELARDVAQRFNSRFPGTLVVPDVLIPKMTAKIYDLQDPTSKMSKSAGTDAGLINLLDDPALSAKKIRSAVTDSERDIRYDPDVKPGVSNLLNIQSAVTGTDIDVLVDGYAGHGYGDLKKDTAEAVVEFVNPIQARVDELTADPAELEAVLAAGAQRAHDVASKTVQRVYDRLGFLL
UniProt P9WNZ1, whole entry: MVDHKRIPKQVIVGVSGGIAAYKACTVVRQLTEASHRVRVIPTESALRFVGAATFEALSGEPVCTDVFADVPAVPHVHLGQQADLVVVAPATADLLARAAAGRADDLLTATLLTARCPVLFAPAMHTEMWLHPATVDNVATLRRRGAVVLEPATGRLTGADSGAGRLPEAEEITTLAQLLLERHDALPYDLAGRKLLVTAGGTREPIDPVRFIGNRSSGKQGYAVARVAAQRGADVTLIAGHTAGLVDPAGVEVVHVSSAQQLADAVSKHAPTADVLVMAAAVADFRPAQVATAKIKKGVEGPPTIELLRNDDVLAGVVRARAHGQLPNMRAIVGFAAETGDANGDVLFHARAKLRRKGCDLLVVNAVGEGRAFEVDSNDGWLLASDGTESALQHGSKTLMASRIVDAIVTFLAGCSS
UniProt Q8IDJ8, 1-583: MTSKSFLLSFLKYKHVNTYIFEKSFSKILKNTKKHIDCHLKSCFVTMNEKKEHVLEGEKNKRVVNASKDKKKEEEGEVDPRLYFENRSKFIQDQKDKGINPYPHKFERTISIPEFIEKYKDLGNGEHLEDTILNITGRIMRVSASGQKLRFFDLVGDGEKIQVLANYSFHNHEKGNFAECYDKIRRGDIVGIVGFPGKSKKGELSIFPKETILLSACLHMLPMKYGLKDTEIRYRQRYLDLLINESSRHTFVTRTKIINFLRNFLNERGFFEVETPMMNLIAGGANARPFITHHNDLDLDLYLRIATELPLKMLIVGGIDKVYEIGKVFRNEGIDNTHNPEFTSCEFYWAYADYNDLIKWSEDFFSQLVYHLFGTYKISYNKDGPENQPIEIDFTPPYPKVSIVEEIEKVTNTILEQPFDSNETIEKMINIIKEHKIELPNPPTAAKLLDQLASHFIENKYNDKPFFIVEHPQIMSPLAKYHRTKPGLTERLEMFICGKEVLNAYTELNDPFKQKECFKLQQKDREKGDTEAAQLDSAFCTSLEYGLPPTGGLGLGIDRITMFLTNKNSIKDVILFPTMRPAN

From ChEMBL document CHEMBL3988442, “University of Dundee, Small-Polar-MMV Screening Library” (2021).

Each number is a percent effect as filed. The record does not define 0% and 100%; most values in the screen are far below 50% and negative numbers occur (in some assays of this library far below -100). This is an unselected part of the compounds tested. Two or more numbers in one place are separate tests of the same structure; such repeats can differ widely. A dash means the value is not listed here; it may have been measured.

A: 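Polyketide synthase Pks13, Mycobacterium tuberculosis (UniProt I6X8D2). Enzyme assay of the thioesterase domain of polyketide synthase 13; the read-out is not stated. Compounds at 30 µM. Higher reads as stronger inhibition (inferred from which compounds were picked for retests). Size under these conditions: about 67,000 compounds, about 300 of them at 50% or above in at least one test.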
B: 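Enzyme assay of tryptophanyl-tRNA synthetase; the read-out is not stated. Target: Tryptophan-tRNA ligase, Mycobacterium tuberculosis (UniProt P9WFT3). Compounds at 10 µM. Direction is not recorded; retested compounds ran higher, which suggests that high means inhibition. Size under these conditions: about 65,000 compounds, about 64 of them at 50% or above in at least one test.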
C: 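Enzyme assay of CoaBC with a phosphate dye (Biomol Green) read at 650 nm. Target: Coenzyme A biosynthesis protein CoaBC, Mycobacterium tuberculosis (UniProt P9WNZ1). Tested at 30 µM. Higher reads as stronger inhibition, judged from the few compounds that gave an IC50. Most strong results did not repeat in a second test. Of about 67,000 compounds tested this way, about 40 (0.06%) reached 50% or more in at least one test.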
D: 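Lysine-tRNA ligase, Plasmodium falciparum 3D7 (UniProt Q8IDJ8). Enzyme assay of the cytosolic lysyl-tRNA synthetase in 384-well plates, read by luminescence. Compounds at 30 µM. Direction is inferred from only a few compounds that gave an IC50; most scored high, so higher reads as stronger inhibition. Size under these conditions: about 69,000 compounds, about 49 of them at 50% or above in at least one test.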

structure	A	B	C	D
COc1ccc(-c2nc(C)cc(SCC(N)=O)n2)cc1	-13.82%	-3.387%	-10.85%	-1.523%
O=C1CCCN1Cc1ncn2c1CN(S(=O)(=O)c1cccs1)CCC2	-27.7%	-2.604%	4.886%	9.41%
NCC1CCC2(CCN(C(=O)c3ccccn3)CC2)CO1 (stereo not shown)	-	-	4.198%	2.362%
Cc1nn(C)c(C)c1NC(=O)CN1CCN(c2nccs2)C(C)C1 (stereo not shown)	3.744%	-3.762%	30.7% and 9.794%	2.758%
CCN(Cc1cnn(C)c1)S(=O)(=O)N1CCCC1c1ccco1 (stereo not shown)	-14.14%	3.64%	13.25%	1.716%
CCc1cnc(N2CC[C@H]3[C@@H]2CCC(=O)N3CC2CCOCC2)nc1	88.25%	6.105%	-	-3.237%
COCC(=O)NC(c1ccc(Cl)cc1)c1noc(C)n1 (stereo not shown)	-41.44%	-0.9723%	3.64%	0.5237%
CCC1CN(C(=O)COc2ccc(C)nc2)CCO1 (stereo not shown)	-18.3%	-3.515%	-1.927%	7.521%
COCCNC(=O)Cn1ccc2sc(C)cc2c1=O	-1.379%	0.4402%	-0.1203%	-2.454%
COc1cc(NC2CCCN(c3ncccn3)C2)cc(OC)c1 (stereo not shown)	23.22%	-1.665%	6.796%	0.1331%
O=C([C@H]1C[C@H]2OCC[C@H]2N(C(=O)C2CCOCC2)C1)N1CCCCO1	-15.23%	0.7345%	2.157%	6.099%
Cc1cnc(N2C[C@@H]3[C@@H](C2)OCC(=O)N3CCN(C)C)nc1	3.466%	0.0969%	-	4.593%
NC(=O)C1(CCCc2cccnc2)CCCN(c2ncccn2)C1 (stereo not shown)	2.955%	0.9167%	2.225%	13.77%
CCN1CC(C(=O)NCc2nn(CC)c3ccccc23)CCC1=O (stereo not shown)	7.568%	9.667%	6.452%	-2.243%
c1cnnc(N2CCCC2CNCc2noc(C3CC3)n2)c1 (stereo not shown)	-25.45%	7.147%	2.35%	-2.709%
CN(C)c1cc(C2CCCN(C(=O)c3ccc(=O)[nH]n3)C2)ccn1 (stereo not shown)	11.3%	-6.323%	6.061%	2.654%
CC(C)CCC(=O)NCCc1ccn(-c2ccccc2)n1	-17.86%	-2.328%	-14.48%	-1.795%
c1cnc(N2CCC3(CCCN(Cc4ccncc4)C3)CC2)nc1	-14.76%	3.896%	4.665%	-7.048%
CC(C)CN1CCCC12CCN(c1nncs1)C2 (stereo not shown)	-26.92%	0.07969%	-10.32%	-1.554%
Cc1ccnc(C2(C)CCCN2S(=O)(=O)c2c(C)noc2C)n1 (stereo not shown)	9.886%	-5.805%	-9.371%	-0.3962%
O=C(c1cncc(N2CCC(O)(CO)CC2)n1)N1CCCC1	-1.39%	2.309%	-7.143%	0.4672%
Cc1cc2n(n1)CC(CNCc1ccc(OCC3CC3)nc1)CN2 (stereo not shown)	-21.69%	2.629%	10.97%	-0.4513%
CCn1c(CNC(=O)Nc2nc(C)c(C)o2)nc2ccccc21	-5.452%	0%	-1.222%	-1.077%
COCCN1CCC(NC(=O)C2(c3cc(C)cc(C)c3)CC2)CC1	-9.242%	0.09747%	9.182%	-3.279%
O=S(=O)(c1cccs1)N1CCCCC1c1ccn[nH]1 (stereo not shown)	-4.312%	-	2.184%	2.267%
CC(C)c1nccn1CCCNC(=O)c1ccc(N(C)C)nc1	-35.5%	-0.5329%	5.357%	6.096%
COCC(=O)N1CCC2(CCN(Cc3ccccn3)CC2)CC1	-11.43%	1.055%	3.475%	2.256%
CCc1nc(NC(=O)NCCc2scnc2C)nn1C	-15.39%	11.02%	-2.539%	4.696%
COc1ccc(CNCCc2cc(F)cc3c2OCOC3)cc1OC	-10.96%	-0.8912%	1.276%	2.112%
Cc1nc(CN2CCC(c3nc4cc(Cl)ccc4o3)CC2)oc1C	-24%	-0.5485%	-0.4592%	-2.642%
CCOCCN1CCN(Cc2cccc(C(=O)N(C)C)c2)CC1	45.42%	0.2915%	10.79%	-10.06%
CNC(=O)[C@@]12CCO[C@@H]1CCN(S(=O)(=O)c1cccc(F)c1)C2	-18.86%	-5.08%	4.079%	2.183%
CC(C)n1ccnc1CN1CCCC1c1cccc(-n2ccnc2)n1 (stereo not shown)	2.552%	2.609%	2.433%	1.436%
CNC(=O)[C@@H](c1ccccc1OC)N1CCC[C@H]1C(=O)NCCN(C)C	-24.98%	2.695%	3.226%	5.024%
O=C(NCCc1ccn(-c2ccccc2)n1)N1CCCC(O)C1 (stereo not shown)	-16.66%	-7.273%	4.178%	-0.7586%
CC(C)OCCS(=O)(=O)N1CCN(Cc2ccco2)CC1	2.873%	0.08211%	0.3686%	2.174%
CCN1CCN(C[C@@H]2CN(c3ncccc3Cl)C[C@@H]2CO)CC1	-2.556%	-1.652%	-0.4969%	3.622%
CC(C)c1nn(C)c(N(C)C)c1CNCc1ccnn1C	17.72%	-6.12%	-1.768%	-1.809%
O=C(NC1CCc2c(ccc(=O)n2CC2CC2)C1)c1cscn1 (stereo not shown)	-28.17%	-2.535%	0.2463%	4.087%
CSC1(CNC(=O)c2cccc(-n3cccn3)c2)CCOCC1	-7.133%	-2.654%	-0.4819%	-0.1144%
CCc1c(C(=O)N2CCC(CC(N)=O)CC2)cnn1C(C)(C)C	-14.54%	-0.7252%	1.912%	-0.4703%
COC(=O)c1ccoc1CN(C)Cc1cc(OC)c(OC)cc1C	-5.067%	-0.3393%	-0.1318%	-1.086%
CN1C(=O)[C@H](OC(N)=O)[C@@H](C(=O)Nc2ccccc2)C12CCNCC2	19.75%	-	4.116%	6.594%
C=C(C)CN1CCN(Cc2cnc(-c3ccc(OC)cc3)nc2)CC1	-	0%	4.574%	0.4862%
c1ccc2oc(CCCN3CCCC(Cn4cncn4)C3)nc2c1 (stereo not shown)	5.953%	6.908%	9.868%	3.466%
CCCc1ncc(CN(CCOC)Cc2cccs2)cn1	-23.15%	-1.005%	0%	0.1963%
Cc1ccc(C)c(C(=O)N2CCN(C(=O)Cc3ccccn3)CC2)c1	-38.18%	-7.668%	10.31%	0.5987%

Once more, the final 4:

| structure | A | B | C | D |
|---|---|---|---|---|
| `C=C(C)CN1CCN(Cc2cnc(-c3ccc(OC)cc3)nc2)CC1` | - | 0% | 4.574% | 0.4862% |
| `c1ccc2oc(CCCN3CCCC(Cn4cncn4)C3)nc2c1` (stereo not shown) | 5.953% | 6.908% | 9.868% | 3.466% |
| `CCCc1ncc(CN(CCOC)Cc2cccs2)cn1` | -23.15% | -1.005% | 0% | 0.1963% |
| `Cc1ccc(C)c(C(=O)N2CCN(C(=O)Cc3ccccn3)CC2)c1` | -38.18% | -7.668% | 10.31% | 0.5987% |